Measurements as given in PubChem BioAssay AID504444 (National Center for Advancing Translational Sciences (NCATS), 2011).
Out of some 360,000 compounds screened, about 7,500 (2.1%) were called active. This list was built around the results that the source calls inconclusive (neither active nor inactive); the mix of calls is not that of the screen. Calls follow the shape of the dose curve; as a rule, active = well fitted inhibition curve with a large enough effect; inconclusive = small, poorly fitted or top-dose-only effect, or effect the other way; inactive = flat fitted curve, though single readings scatter. Where the call is inconclusive, the potency comes from a doubtful curve fit.

Test: Nrf2 qHTS screen for inhibitors; also: nearly all actives have a fitted effect of over 60% in size
Settings: A549 ARE-Fluc reporter, luciferase luminescence, 18-24 h; activity change, negative = inhibition: at 46 µM (top of the series)
Outline: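 Reporter: ARE-Fluc in A549. Exposure: 18-24 h, 37 °C, 5% CO2, 5% FBS OPTI-MEM. Readouts: fluorescent cytotoxicity (CellTiter-Fluor), then luminescent Nrf2 signal after BugLite.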
% is scaled to controls: 0 for no effect and ±100 for the full control effect; potency is read from the fitted curve at half-maximal effect.

With `CCC(C)c1ccc(S(=O)(=O)Nc2cccnc2)cc1` (stereo not drawn) as the compound, how does the Potency read?
The Potency was inconclusive: 16.4 µM [falling, single point].

With `COc1ccccc1-n1c(SCC(=O)c2ccc(O)cc2O)nc2cc([N+](=O)[O-])ccc21` as the compound, how does the Potency read?
Its Potency is inconclusive: 23.1 µM [falling, single point].

For `O=c1[nH]c(NC2CCN(S(=O)(=O)c3ccccc3C(F)(F)F)CC2)nc2c1CCCC2`, which Potency is on record?
Its Potency is inconclusive: 25.9 µM [falling, single point].

For `COc1cc(NS(=O)(=O)c2ccc(NC(=O)C34CC5CC(CC(C5)C3)C4)cc2)ncn1`, which Potency is on record?
Its Potency is inconclusive: 14.6 µM [falling, partial curve, poor fit].

For `CCOc1ccccc1-c1cc(C(=O)N/N=C/c2ccc(O)c(OC)c2)c2ccccc2n1`, which Potency is on record?
The Potency was inconclusive: 29.1 µM [activator, single point].

With `CCCCCC(=O)Nc1cccc(C2=NOC3(C2)C[C@@H](C(N)=O)N(C(=O)CC(c2ccccc2)c2ccccc2)C3)c1` (stereo partly drawn) as the compound, how does the Potency read?
Its Potency is active: 20.6 µM.

For `CC(C)CNC(=O)c1coc(=O)c(Br)c1`, which Potency is on record?
Its Potency is inconclusive: 29.1 µM [activator, single point].

Which Potency does the source give for `COc1ccccc1CCc1nnc(CCC(=O)N(C)Cc2cccc3cnccc23)o1` here?
The Potency was inconclusive: 2.91 µM [activator, partial curve].

With `O=C(Nc1ccc([N+](=O)[O-])cc1Cl)c1cc(Cl)cc(Cl)c1O` as the compound, how does the Potency read?
Its Potency is inconclusive: 0.366 µM [activator, full curve, poor fit].

With `CC1Cc2ccccc2N1C(=S)NC(=O)c1cccc(Br)c1` (stereo not drawn) as the compound, how does the Potency read?
The Potency was inconclusive: 25.9 µM [falling, single point].

Which Potency does the source give for `Cc1nn(Cc2ccccc2)c(Cl)c1/C=N/NC(=O)c1cccnc1` here?
The Potency was inconclusive: 20.6 µM [falling, single point].

For `COC(=O)CN1C(=O)CSc2ccc(S(=O)(=O)Nc3cc(C)ccc3C)cc21`, which Potency is on record?
The Potency was “inactive”.

Which Potency does the source give for `Cc1c(C(=O)Nc2cccc(C(F)(F)F)c2)oc2ccc3c(c12)C(=O)CC(C)(C)O3` here?
The Potency was inconclusive: 0.651 µM [activator, partial curve, poor fit].

With `COc1cccc(-c2nc(C(=O)NCCCN3CCOCC3)cc3c2[nH]c2ccccc23)c1` as the compound, how does the Potency read?
The Potency was inconclusive: 25.9 µM [falling, single point].

For `CC1=C(c2ccc(C)c(C)c2)S(=O)(=O)NC1=NCc1ccccc1Cl`, which Potency is on record?
The Potency was active: 23.1 µM.

With `O=C(Nc1ccc2ccccc2c1)c1ccc(Cl)cc1` as the compound, how does the Potency read?
Its Potency is inconclusive: 0.103 µM [activator, full curve, poor fit].

For `CCOC(=O)c1c(C)[nH]c(C)c1S(=O)(=O)N1CCC(C(=O)Nc2cc(Cl)ccc2OC)CC1`, which Potency is on record?
The Potency was “inactive”.

With `COc1ccc(-c2n[nH]c3c2C(c2ccc(OC)c(OC)c2)N(c2ccccc2)C3=O)cc1` (stereo not drawn) as the compound, how does the Potency read?
The Potency was “inactive”.

Which Potency does the source give for `CCOc1ccc(CCNC(=O)c2cn(C)c3ccc(S(=O)(=O)N4CCCCC4)cc3c2=O)cc1OCC` here?
The Potency was inconclusive: 14.6 µM [activator, partial curve].

Which Potency does the source give for `Cc1ccc(Nc2nc(CSc3nnnn3C)cs2)cc1` here?
Its Potency is inconclusive: 0.517 µM [activator, full curve, poor fit].

With `COc1ccc2oc(=O)c(C(=O)N3CCN(C(=O)c4ccco4)CC3)cc2c1` as the compound, how does the Potency read?
The Potency was inconclusive: 1.64 µM [activator, full curve, poor fit].

Which Potency does the source give for `Cc1ccc(NC(=O)COC(=O)/C(=C/c2cccs2)c2cccs2)cc1S(=O)(=O)N(C)C` here?
The Potency was inconclusive: 29.1 µM [falling, single point].

With `CCc1cc(OCCCSc2nc(C)cc(=O)[nH]2)ccc1Cl` as the compound, how does the Potency read?
Its Potency is inconclusive: 20.6 µM [falling, single point].

For `CCCc1cc(-c2[nH]ncc2-c2ccc(C(=O)OCC)o2)c(O)cc1O`, which Potency is on record?
Its Potency is inconclusive: 32.6 µM [falling, single point].

With `CCc1nnc(NC(=O)c2cc(S(=O)(=O)N(CC)CC)ccc2Cl)s1` as the compound, how does the Potency read?
Its Potency is active: 16.4 µM.

Which Potency does the source give for `COc1ccc(Nc2cc(Cl)nc(N)n2)cc1` here?
The Potency was inconclusive: 4.61 µM [activator, partial curve, poor fit].

Which Potency does the source give for `COc1ccc(-c2csc(Cc3nnc(N4CCOCC4)n3-c3ccccc3)n2)cc1` here?
Its Potency is inconclusive: 29.1 µM [falling, single point].

With `CCOC(=O)c1cccc(COC(=O)c2cccc(-c3nnc(-c4ccccc4)o3)c2)c1` as the compound, how does the Potency read?
Its Potency is inconclusive: 0.731 µM [activator, full curve].

For `Cc1cccc(C2=NOC(=O)/C2=C\c2ccccc2F)c1`, which Potency is on record?
The Potency was “inactive”.

Which Potency does the source give for `C/C(=N\NC(=O)c1nnn(-c2nonc2N)c1CN1CCc2ccccc21)c1ccccc1O` here?
The Potency was active: 11.6 µM.

For `O=C(O)c1ccc(N=Cc2nc(-c3ccco3)oc2O)cc1`, which Potency is on record?
Its Potency is “inactive”.

With `CCN(CC)S(=O)(=O)c1ccc(OC)c(-n2cnnn2)c1` as the compound, how does the Potency read?
Its Potency is inconclusive: 0.092 µM [activator, full curve].

For `CCc1ccc(OCCn2c(CCNC(=O)C3CCCCC3)nc3ccccc32)cc1`, which Potency is on record?
Its Potency is inconclusive: 20.6 µM [falling, single point].

With `CCOC(=O)Nc1ccc2c(c1)N(CCCN(C)C)c1ccccc1CC2` as the compound, how does the Potency read?
The Potency was inconclusive: 29.1 µM [falling, single point].

Which Potency does the source give for `CCOc1ccc(C(C(=O)NCC2CCCO2)N(Cc2cccc(OC)c2)C(=O)c2snc(C(N)=O)c2N)cc1` (stereo not drawn) here?
Its Potency is inconclusive: 29.1 µM [falling, single point].

Which Potency does the source give for `O=C(NC1CCCCC1)c1cc(S(=O)(=O)N2CCCC2)ccc1Cl` here?
The Potency was inconclusive: 25.9 µM [falling, partial curve, poor fit].

For `COc1ccc(C(=O)C2CCCN(Cc3sc(N4CCCC4)nc3Cl)C2)c(OC)c1` (stereo not drawn), which Potency is on record?
The Potency was inconclusive: 29.1 µM [falling, single point].

With `CCN(CCCNC(=O)C1CCC(=O)N1Cc1ccc(C)cc1)c1cccc(C)c1` (stereo not drawn) as the compound, how does the Potency read?
The Potency was inconclusive: 6.51 µM [falling, full curve, poor fit].

With `CCC(C)(C)NC(=O)CN(C(=O)CCC(=O)Nc1nccs1)c1ccc(C)cc1` as the compound, how does the Potency read?
Its Potency is “inactive”.

With `CC(=O)c1c(C)[nH]c(C(=O)Nc2ccc(C)c(S(=O)(=O)Nc3ccc(C)cc3C)c2)c1C` as the compound, how does the Potency read?
Its Potency is inconclusive: 16.4 µM [falling, partial curve, poor fit].

With `CCc1ccc(/C=C2/C(=O)N(c3ccccc3)C(=S)N2CC(=O)OC)s1` as the compound, how does the Potency read?
The Potency was inconclusive: 29.1 µM [falling, single point].

For `CC(=O)c1sc2nc(-c3cccs3)ccc2c1N`, which Potency is on record?
Its Potency is inconclusive: 9.2 µM [activator, partial curve, poor fit].

With `Cc1c(NC(=O)c2ccc(-c3cccc([N+](=O)[O-])c3)o2)cccc1-c1nc2cc(Cl)ccc2o1` as the compound, how does the Potency read?
Its Potency is inconclusive: 9.2 µM [activator, partial curve].

With `COc1ccc(-c2nn(-c3ccccc3)cc2C2CC(c3cccs3)=NN2C(=O)CCCC(=O)O)cc1` (stereo not drawn) as the compound, how does the Potency read?
The Potency was inconclusive: 16.4 µM [falling, single point].

With `CC1CCc2nc3sc4c(c3c(N)c2C1)CCCC4` (stereo not drawn) as the compound, how does the Potency read?
Its Potency is “inactive”.

Which Potency does the source give for `Cn1c(=O)c2[nH]c(CCCc3ccc([N+](=O)[O-])cc3)nc2n(C)c1=O` here?
The Potency was inconclusive: 14.6 µM [falling, partial curve].

With `CCOC(=O)c1cc2c(=O)n3ccccc3nc2n(CCOC)c1=NC(=O)c1c(-c2ccccc2Cl)noc1C` as the compound, how does the activity change, negative = inhibition read?
Its activity change, negative = inhibition is inactive: 2.17% [at 9.27 µM].

For `Cc1cccc(C)c1NC(=O)c1cccc2c1C(=O)N(C1CCCCC1)C2`, which Potency is on record?
Its Potency is inconclusive: 23.1 µM [falling, single point].

For `CCCCNC(=O)c1ccc(NC(=O)C2CCCO2)cc1` (stereo not drawn), which Potency is on record?
The Potency was inconclusive: 0.82 µM [falling, full curve, poor fit].

For `CC(=O)c1ccc(N2CCN(C(=O)C3CCCN(S(=O)(=O)c4ccc(Br)s4)C3)CC2)cc1` (stereo not drawn), which Potency is on record?
The Potency was active: 16.4 µM.

With `O=C(Nc1nc2ccccc2[nH]1)c1cc(F)cc(F)c1` as the compound, how does the Potency read?
The Potency was inconclusive: 7.31 µM [activator, partial curve].

With `O=C1c2cc([N+](=O)[O-])cc3cc([N+](=O)[O-])cc(c23)C(=O)N1c1ccccn1` as the compound, how does the Potency read?
The Potency was inconclusive: 16.4 µM [falling, single point].

With `Cc1cccc(-n2c(SCC(=O)NCc3ccco3)nc3ccccc3c2=O)c1` as the compound, how does the Potency read?
Its Potency is inconclusive: 16.4 µM [falling, partial curve, poor fit].

For `Clc1cnc(N/N=C/c2ccncc2)c(Cl)c1`, which Potency is on record?
The Potency was inconclusive: 20.6 µM [activator, partial curve, poor fit].

With `Cc1ccc(CNC(=O)c2ccccc2NS(=O)(=O)c2ccc(Cl)nc2)cc1` as the compound, how does the Potency read?
Its Potency is inconclusive: 20.6 µM [falling, single point].

For `Cn1cnc([N+](=O)[O-])c1Oc1cccc2ccccc12`, which Potency is on record?
Its Potency is “inactive”.

For `COC(=O)CSc1ncc(C#N)c(N)n1`, which Potency is on record?
The Potency was inconclusive: 29.1 µM [activator, single point].

With `Cc1ccc(-n2nc3ccc(NC(=O)COc4ccccc4C)cc3n2)cc1` as the compound, how does the Potency read?
Its Potency is “inactive”.

For `CC(=O)NS(=O)(=O)c1ccc(N=c2ssc3c2-c2cc(C)c(C)cc2NC3(C)C)cc1`, which Potency is on record?
The Potency was inconclusive: 23.1 µM [falling, single point].

For `CCC1CN(S(=O)(=O)c2cc(-c3cc(C)no3)ccc2C)c2cc(C)ccc2O1` (stereo not drawn), which Potency is on record?
Its Potency is inconclusive: 29.1 µM [falling, single point].

With `Cc1ccc(C)c(N2CCN(C(=O)C3CCCN(S(=O)(=O)c4c(C)noc4C)C3)CC2)c1` (stereo not drawn) as the compound, how does the Potency read?
Its Potency is active: 16.4 µM.

With `O=C(NCCc1ccccc1)c1ccc(-n2cnnn2)cc1` as the compound, how does the Potency read?
Its Potency is inconclusive: 5.8 µM [activator, full curve, poor fit].

With `Cc1ccc(OCCCN2CCCC2)c(C)c1` as the compound, how does the Potency read?
Its Potency is inconclusive: 13 µM [activator, partial curve, poor fit].
